PubChem BioAssay AID1259275 | Sanger Institute, 2017
In all, the deposit lists 794 reagents; shown is a random part of them. Over the whole deposit, 13 (1.6%) got an active call. 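Calls mark knock-downs lethal by themselves, not drug synergy; drugs went in a day after transfection, with DMSO as vehicle.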 Unmarked entries are inactive. The numbers tell different reagents against one gene apart. Not all columns of the deposit are shown. Not given: the amount of reagent, the time to read-out.

- Aim: 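Kinase and colorectal cancer genes needed for cancer cell survival, with or without drugs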 (primary screen)
- Cell system: COLO320HSR human colorectal cancer cells
- Reagent: siRNA pool against human genes
- Conditions: anchor drug added one day after transfection: BYL719 at 1 µM, cetuximab at 5 µg/ml or trametinib at 10 nM; DMSO as vehicle arm
- Detection: 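Viability averaged over replicates as a fraction of the non-targeting pool, a robust z-score for knock-down alone, and synergy scores with BYL719 (1 µM), cetuximab (5 µg/ml) or trametinib (10 nM)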
- Reading the numbers: robust z-score, siRNA alone: higher = more viable cells; strongly negative means essential
- Hit rule: 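Essential means the knock-down by itself gives a robust z-score lower than -3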
- Calls: active = essential (siRNA alone); inactive = no change (siRNA alone)

gene | reagent no. | robust z-score, siRNA alone
PRKD3 | 1 | -0.592
ILK | 1 | 0.514
ILK | 2 | 0.726
RIPK3 | 1 | 0.32
PKLR | 1 | 0.726
ELP1 | 1 | -0.175
ACVRL1 | 1 | -0.781
MAP3K11 | 1 | 0.242
PIK3R5 | 1 | -0.291
CPNE3 | 1 | -0.368
GOLGA5 | 1 | 0.165
NPR2 | 1 | 0.317
PBK | 1 | -1.3
DDR1 | 1 | 0.00467
PTPRU | 1 | -0.902
EFNA4 | 1 | 0.552
STK31 | 1 | -0.838
EPHA5 | 1 | -0.0719
TTBK1 | 1 | -0.518
CAMK1D | 1 | 0.667
PRP4K | 1 | -0.673
EPHB2 | 1 | 0.726
PTK6 | 1 | 0.726
PDIK1L | 1 | 0.726
CSNK2A2 | 1 | -0.0684
PTK2B | 1 | -0.485
RPS6KA5 | 1 | -1.2
CDC42BPA | 1 | -0.301
SGK2 | 1 | -1.25
CAD | 1 | 0.625
TBK1 | 1 | 0.0333
PFKP | 1 | -1.21
FN3K | 1 | 0.482
HIPK1 | 1 | -0.521
PTK7 | 1 | -1.11
AXL | 1 | 0.726
IGF2R | 1 | 0.378
VRK1 | 1 | -0.52
MAPKAPK3 | 1 | 0.726
ABL1 | 1 | -0.318
NEK4 | 1 | -0.721
MAP3K21 | 1 | 0.726
MATK | 1 | -0.502
CDK5 | 1 | 0.726
CLK3 | 1 | 0.579
TESK2 | 1 | 0.726
MAP3K4 | 1 | 0.355
NLK | 1 | -1.15
PKN3 | 1 | -1.75
TSSK2 | 1 | 0.0584

Records above whose target name starts with S or s:
gene | reagent no. | robust z-score, siRNA alone
STK31 | 1 | -0.838
SGK2 | 1 | -1.25
